Results reported in PMC8754431.
No constants are given. Whether binding was seen depends on the method and setting. Binding seen in cells or lysates may run through a third protein. Some entries that bind do so weakly or less than the wild type.

By UniProt entry, the sequences of proteins in these tests, tags left out.
UniProt E9PY46: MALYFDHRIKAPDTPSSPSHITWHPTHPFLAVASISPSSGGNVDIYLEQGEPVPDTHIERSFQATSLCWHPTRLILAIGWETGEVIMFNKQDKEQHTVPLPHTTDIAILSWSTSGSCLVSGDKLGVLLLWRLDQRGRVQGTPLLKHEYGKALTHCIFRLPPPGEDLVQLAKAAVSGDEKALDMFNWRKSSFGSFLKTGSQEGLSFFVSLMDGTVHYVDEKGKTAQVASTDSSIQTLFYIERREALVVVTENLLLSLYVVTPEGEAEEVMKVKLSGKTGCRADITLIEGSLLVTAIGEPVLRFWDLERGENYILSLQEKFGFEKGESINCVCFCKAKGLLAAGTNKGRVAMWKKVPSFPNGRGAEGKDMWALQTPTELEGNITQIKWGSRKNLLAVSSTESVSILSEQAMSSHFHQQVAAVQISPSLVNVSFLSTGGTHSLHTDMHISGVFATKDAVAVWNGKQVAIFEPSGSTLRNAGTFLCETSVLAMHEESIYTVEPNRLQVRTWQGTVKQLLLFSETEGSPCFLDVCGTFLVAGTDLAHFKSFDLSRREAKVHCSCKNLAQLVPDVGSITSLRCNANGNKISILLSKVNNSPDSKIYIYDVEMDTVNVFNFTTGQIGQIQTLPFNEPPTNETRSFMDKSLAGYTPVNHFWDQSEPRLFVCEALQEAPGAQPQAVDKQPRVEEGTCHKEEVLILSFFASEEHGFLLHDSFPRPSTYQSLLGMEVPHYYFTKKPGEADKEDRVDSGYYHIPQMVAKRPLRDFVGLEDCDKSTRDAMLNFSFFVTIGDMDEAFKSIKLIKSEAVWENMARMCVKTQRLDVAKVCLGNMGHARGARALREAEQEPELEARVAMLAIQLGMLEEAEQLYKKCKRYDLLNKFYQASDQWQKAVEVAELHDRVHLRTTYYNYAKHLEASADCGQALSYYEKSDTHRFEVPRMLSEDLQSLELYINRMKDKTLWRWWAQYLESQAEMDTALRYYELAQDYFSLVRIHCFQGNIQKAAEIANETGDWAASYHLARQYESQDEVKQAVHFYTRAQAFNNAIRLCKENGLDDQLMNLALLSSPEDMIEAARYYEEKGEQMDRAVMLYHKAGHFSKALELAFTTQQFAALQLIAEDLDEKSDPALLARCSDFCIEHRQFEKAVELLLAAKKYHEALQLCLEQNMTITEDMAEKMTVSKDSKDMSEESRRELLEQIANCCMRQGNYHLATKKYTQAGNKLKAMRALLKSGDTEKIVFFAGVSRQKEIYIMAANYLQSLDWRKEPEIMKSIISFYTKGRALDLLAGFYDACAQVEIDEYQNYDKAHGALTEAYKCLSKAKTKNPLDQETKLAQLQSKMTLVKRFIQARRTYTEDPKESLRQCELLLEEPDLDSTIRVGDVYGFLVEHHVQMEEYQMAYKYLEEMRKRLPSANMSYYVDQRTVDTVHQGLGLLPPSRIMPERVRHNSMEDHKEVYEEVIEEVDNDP

Target: IFT140 (mouse (endogenous in E11.5 embryos)) (UniProt E9PY46)
Assay: co-IP; endogenous IFT140 immunoprecipitated from E11.5 Wdr35+/+ and Wdr35-/- mouse embryo lysates, immunoblots of IFT-A subunits

binding: binds
B1: IFT43 (protein, UniProt Q9DA69 1-206)
chain: MDDLLDLGEERRRSSATSGAKMGRRAHQESTQAENYLNSKNSSLTQTGEAPPPKPPRRQGGWADDSMKMAKLGKKVSEEMEDHRLRQQNLMGSDDDDIPVIPDLEDVQEEDFVLQVASPPSIQVNRVMTYRDLDNDLMKYSAFQTLDGEIDLKLLTKVLAPEHEVREDDVGWDWDHLYTEVSSELLTEWDLLRAEKEDPVGPSRYI
